From the supplement of paper PMC12819154, “High-throughput peptide-centric local stability assay extends protein–ligand identification to membrane proteins, tissues and bacteria” (Nature Structural & Molecular Biology, 2025)
This is one part of the list. Most entries show no effect beyond the scatter of the controls.

Chains of the proteins cited; added tags and fusions are not shown. Lines headed by an entry give the natural chain unless they say otherwise; changes in a name come on top.
UniProt P49721: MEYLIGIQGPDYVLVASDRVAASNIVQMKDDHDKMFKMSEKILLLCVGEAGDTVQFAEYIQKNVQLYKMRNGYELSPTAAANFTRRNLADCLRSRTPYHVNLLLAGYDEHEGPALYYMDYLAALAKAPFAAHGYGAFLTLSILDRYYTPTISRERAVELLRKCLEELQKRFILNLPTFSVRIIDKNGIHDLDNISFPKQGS
UniProt P53634: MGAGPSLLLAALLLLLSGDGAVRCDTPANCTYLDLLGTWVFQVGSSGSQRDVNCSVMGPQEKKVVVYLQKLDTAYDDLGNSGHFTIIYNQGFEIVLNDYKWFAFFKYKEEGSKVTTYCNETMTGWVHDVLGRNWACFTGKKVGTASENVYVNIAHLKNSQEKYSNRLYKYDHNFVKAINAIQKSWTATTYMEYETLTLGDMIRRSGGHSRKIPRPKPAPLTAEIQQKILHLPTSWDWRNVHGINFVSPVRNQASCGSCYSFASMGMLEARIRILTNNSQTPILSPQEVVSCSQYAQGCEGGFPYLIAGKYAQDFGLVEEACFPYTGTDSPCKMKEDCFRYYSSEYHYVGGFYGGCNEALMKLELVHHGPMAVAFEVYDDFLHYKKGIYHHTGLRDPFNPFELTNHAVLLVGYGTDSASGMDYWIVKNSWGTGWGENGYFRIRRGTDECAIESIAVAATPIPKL
UniProt P52824: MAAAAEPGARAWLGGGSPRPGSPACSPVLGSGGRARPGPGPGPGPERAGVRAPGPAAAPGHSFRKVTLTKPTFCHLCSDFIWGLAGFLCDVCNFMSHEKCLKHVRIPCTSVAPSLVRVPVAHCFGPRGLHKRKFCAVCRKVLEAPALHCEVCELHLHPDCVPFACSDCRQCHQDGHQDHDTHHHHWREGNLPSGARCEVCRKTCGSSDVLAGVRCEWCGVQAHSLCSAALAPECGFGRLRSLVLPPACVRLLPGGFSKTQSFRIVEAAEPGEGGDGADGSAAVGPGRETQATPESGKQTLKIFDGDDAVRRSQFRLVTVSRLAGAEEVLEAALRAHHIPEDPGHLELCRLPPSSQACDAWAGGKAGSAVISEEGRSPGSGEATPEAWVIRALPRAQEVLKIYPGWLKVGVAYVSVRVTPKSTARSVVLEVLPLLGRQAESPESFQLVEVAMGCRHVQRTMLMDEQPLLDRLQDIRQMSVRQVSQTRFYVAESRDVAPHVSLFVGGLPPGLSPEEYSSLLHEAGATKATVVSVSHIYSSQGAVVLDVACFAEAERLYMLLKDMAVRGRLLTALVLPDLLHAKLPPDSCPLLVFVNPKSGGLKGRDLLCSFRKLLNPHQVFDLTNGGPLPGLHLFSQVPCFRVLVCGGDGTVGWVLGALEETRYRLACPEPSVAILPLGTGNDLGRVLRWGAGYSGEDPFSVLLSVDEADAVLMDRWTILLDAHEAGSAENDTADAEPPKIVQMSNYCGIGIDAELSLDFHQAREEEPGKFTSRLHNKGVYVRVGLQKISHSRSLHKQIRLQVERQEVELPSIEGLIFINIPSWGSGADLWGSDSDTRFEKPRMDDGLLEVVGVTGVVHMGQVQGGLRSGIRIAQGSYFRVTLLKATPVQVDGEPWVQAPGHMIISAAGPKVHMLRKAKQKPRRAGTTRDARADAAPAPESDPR
UniProt P49458: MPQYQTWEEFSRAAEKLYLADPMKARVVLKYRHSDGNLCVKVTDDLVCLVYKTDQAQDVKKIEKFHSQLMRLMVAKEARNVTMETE
UniProt P54277: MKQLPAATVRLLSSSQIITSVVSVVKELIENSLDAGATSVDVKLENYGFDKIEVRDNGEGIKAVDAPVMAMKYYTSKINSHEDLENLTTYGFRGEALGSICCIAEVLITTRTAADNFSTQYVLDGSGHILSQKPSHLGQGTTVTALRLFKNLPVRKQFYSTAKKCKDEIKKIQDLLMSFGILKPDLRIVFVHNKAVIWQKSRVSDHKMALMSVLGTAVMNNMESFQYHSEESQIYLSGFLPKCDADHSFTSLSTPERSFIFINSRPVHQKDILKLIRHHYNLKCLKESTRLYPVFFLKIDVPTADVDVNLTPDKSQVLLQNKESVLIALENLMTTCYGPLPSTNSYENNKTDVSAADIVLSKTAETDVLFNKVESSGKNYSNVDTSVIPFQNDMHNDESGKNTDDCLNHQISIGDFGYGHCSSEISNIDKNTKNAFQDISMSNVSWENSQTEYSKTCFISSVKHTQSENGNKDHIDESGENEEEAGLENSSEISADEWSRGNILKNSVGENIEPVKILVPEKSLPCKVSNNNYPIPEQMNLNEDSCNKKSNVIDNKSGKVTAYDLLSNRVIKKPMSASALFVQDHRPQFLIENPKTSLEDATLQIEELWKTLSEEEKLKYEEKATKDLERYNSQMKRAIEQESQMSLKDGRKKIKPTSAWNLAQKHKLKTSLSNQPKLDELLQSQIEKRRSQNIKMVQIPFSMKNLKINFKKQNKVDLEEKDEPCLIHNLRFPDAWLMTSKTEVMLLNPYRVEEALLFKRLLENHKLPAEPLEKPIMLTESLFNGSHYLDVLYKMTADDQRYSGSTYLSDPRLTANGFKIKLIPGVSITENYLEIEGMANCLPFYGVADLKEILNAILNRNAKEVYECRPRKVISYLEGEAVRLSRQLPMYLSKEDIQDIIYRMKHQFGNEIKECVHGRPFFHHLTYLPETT
UniProt P51617, whole entry, looked up: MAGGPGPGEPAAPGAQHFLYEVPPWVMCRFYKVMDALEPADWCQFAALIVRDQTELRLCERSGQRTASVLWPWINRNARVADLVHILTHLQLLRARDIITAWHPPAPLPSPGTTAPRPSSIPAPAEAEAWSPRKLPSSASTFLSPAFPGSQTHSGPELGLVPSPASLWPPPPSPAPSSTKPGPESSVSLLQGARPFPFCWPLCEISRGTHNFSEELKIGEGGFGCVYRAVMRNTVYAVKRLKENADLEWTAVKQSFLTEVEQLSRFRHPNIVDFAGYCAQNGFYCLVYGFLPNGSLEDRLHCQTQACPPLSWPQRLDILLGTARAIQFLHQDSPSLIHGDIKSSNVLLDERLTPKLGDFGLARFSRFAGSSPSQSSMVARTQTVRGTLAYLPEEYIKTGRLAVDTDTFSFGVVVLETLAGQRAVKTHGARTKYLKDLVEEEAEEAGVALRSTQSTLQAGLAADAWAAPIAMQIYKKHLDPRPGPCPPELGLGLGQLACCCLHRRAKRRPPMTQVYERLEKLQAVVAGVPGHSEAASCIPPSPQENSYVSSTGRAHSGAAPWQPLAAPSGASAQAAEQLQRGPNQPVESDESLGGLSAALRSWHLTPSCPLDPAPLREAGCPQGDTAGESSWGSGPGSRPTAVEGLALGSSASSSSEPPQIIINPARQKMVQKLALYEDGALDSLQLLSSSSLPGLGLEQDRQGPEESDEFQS
UniProt P54252: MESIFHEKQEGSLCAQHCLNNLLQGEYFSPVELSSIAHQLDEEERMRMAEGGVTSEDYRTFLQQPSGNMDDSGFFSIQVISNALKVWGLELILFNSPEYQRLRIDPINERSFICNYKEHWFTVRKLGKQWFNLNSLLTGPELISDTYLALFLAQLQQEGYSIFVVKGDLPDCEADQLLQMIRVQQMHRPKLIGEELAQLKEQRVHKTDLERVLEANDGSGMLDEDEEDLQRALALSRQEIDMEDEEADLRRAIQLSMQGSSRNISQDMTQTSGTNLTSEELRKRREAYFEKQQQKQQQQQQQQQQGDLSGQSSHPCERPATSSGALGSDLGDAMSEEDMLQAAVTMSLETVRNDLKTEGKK
UniProt P49642: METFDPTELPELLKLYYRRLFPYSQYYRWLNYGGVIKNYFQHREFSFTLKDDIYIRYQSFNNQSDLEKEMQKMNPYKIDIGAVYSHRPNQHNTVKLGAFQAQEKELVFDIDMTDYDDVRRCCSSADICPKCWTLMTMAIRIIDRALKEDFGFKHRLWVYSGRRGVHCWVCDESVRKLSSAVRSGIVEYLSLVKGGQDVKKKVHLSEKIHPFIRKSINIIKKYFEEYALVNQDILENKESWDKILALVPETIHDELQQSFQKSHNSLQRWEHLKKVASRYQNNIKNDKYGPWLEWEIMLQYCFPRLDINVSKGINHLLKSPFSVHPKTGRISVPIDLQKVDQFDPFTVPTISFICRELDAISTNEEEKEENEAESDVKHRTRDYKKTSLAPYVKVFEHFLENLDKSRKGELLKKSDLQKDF
UniProt P54259: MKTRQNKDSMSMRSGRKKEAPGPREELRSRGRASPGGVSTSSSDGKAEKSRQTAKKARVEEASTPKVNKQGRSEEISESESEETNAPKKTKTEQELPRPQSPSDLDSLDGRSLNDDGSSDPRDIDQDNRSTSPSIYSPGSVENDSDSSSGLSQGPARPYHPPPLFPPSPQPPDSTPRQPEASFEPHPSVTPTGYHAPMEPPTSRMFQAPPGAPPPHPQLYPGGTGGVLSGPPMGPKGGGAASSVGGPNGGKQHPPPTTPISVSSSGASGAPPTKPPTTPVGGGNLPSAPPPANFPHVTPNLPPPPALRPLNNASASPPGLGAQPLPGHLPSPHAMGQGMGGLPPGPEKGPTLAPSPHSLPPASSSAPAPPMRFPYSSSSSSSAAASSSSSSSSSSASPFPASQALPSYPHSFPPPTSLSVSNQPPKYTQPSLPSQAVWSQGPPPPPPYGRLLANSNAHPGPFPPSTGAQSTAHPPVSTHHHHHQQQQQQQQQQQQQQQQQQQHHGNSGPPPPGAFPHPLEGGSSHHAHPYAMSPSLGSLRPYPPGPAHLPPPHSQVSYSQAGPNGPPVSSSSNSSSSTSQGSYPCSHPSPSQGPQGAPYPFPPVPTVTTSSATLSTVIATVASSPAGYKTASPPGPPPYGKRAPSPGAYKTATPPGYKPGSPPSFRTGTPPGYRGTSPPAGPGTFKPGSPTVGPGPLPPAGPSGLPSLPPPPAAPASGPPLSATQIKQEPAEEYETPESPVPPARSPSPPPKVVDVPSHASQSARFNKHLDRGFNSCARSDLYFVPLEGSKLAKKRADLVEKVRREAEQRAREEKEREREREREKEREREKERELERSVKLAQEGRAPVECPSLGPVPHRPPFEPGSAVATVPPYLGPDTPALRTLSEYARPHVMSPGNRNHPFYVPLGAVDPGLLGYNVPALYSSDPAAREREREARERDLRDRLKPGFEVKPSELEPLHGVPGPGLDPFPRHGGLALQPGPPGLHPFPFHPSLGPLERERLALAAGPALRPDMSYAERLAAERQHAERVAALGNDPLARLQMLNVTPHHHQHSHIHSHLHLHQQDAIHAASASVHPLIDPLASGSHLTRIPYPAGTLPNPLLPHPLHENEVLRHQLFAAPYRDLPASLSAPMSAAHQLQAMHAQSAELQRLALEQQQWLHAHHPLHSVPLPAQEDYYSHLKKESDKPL
UniProt P49796: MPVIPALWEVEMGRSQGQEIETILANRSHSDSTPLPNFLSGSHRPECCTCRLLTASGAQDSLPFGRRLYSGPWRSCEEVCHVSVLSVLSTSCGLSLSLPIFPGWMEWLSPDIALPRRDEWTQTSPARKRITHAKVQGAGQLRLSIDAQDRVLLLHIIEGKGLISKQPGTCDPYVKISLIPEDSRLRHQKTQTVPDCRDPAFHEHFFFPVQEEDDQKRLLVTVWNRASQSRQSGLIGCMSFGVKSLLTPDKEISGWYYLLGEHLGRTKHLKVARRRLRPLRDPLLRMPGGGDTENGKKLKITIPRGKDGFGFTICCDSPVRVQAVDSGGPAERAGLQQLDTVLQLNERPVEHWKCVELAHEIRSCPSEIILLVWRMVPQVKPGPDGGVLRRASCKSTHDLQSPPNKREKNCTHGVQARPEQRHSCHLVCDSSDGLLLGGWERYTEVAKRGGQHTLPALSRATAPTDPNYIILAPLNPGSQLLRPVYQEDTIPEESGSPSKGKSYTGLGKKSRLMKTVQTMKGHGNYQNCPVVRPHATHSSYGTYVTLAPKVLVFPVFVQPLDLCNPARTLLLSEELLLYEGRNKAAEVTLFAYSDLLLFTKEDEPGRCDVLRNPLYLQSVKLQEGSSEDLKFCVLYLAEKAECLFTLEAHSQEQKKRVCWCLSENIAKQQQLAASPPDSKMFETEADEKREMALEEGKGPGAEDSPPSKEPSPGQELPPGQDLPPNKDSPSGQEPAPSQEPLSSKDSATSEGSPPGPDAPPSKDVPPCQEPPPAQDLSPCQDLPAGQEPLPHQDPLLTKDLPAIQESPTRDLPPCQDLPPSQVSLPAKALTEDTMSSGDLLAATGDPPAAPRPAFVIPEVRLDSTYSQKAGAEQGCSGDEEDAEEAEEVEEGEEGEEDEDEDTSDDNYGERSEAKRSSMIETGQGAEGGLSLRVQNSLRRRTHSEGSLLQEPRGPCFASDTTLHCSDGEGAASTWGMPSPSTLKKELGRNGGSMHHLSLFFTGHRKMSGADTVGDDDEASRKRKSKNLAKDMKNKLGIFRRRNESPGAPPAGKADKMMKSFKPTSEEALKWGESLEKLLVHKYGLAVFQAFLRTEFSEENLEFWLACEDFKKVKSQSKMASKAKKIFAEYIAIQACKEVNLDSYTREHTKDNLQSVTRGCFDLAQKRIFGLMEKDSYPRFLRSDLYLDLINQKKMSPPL

Compound: Cc1nc(Nc2ncc(C(=O)Nc3c(C)cccc3Cl)s2)cc(N2CCN(CCO)CC2)n1 [dasatinib]
Experiment: log2 fold change of tryptic peptide abundance, ligand vs vehicle (limited proteolysis) (log2 ratio); higher = more trypsin-susceptible (destabilized)
Conditions: ligand concentration: 5 uM; sample: K562 cleared lysate

Target	log2 fold change
PSMB2 (peptide sequence: VAASNIVQMKDDHDK, peptide start residue: 20) (UniProt P49721)	-0.0942
RPL28 (peptide sequence: SQKPVMVKR, peptide start residue: 120) (UniProt P46779)	-0.0967
ACLY (peptide sequence: FICTTSAIQNR, peptide start residue: 18) (UniProt P53396)	0.12
USP14 (peptide sequence: FDDDKVSIVTPEDILR, peptide start residue: 450) (UniProt P54578)	-0.156
RAD23A (peptide sequence: ILSDDVPIRDYR, peptide start residue: 54) (UniProt P54725)	-0.163
TRAPPC10 (peptide sequence: CVVLSDPLKDSSR, peptide start residue: 162) (UniProt P48553)	0.198
TUFM (peptide sequence: KYEEIDNAPEERAR, peptide start residue: 94) (UniProt P49411)	0.974
CTSC (peptide sequence: NVHGINFVSPVR, peptide start residue: 239) (UniProt P53634)	-0.0429
DGKQ (peptide sequence: DLLCSFR, peptide start residue: 604) (UniProt P52824)	-0.236
CDK9 (peptide sequence: ILQLLKHENVVNLIEICR, peptide start residue: 69) (UniProt P50750)	0.26
RPS5 (peptide sequence: QAVDVSPLR, peptide start residue: 137) (UniProt P46782)	0.156
DNA2 (peptide sequence: GGVSNVTEAK, peptide start residue: 909) (UniProt P51530)	0.622
GTF2A1 (peptide sequence: SVIEDVINDVR, peptide start residue: 16) (UniProt P52655)	-0.281
HNRNPM (peptide sequence: EVFSMAGVVVR, peptide start residue: 222) (UniProt P52272)	-0.311
SRP9 (peptide sequence: VTDDLVCLVYKTDQAQDVKK, peptide start residue: 42) (UniProt P49458)	0.414
PMS1 (peptide sequence: LDELLQSQIEKR, peptide start residue: 678) (UniProt P54277)	-0.201
IRAK1 (peptide sequence: AIQFLHQDSPSLIHGDIK, peptide start residue: 325) (UniProt P51617)	-0.27
AFF1 (peptide sequence: VSQPAAPPEGPR, peptide start residue: 522) (UniProt P51825)	0.266
COPA (peptide sequence: ALDDKNCWEK, peptide start residue: 667) (UniProt P53621)	-0.377
UniProt P49720 (peptide sequence: LNLYELK, peptide start residue: 71)	-0.0289
ATXN3 (peptide sequence: MESIFHEK, peptide start residue: 1) (UniProt P54252)	-0.0908
CAMLG (peptide sequence: IMGFHRPGSGAEEESQTK, peptide start residue: 47) (UniProt P49069)	-0.273
POLR2J (peptide sequence: VAIKDKQEGIE, peptide start residue: 107) (UniProt P52435)	0.0796
PRIM1 (peptide sequence: SGIVEYLSLVK, peptide start residue: 183) (UniProt P49642)	0.101
UniProt P49840 (peptide sequence: DIKPQNLLVDPDTAVLK, peptide start residue: 244)	0.106
PRKAG1 (peptide sequence: LVVFDTSLQVK, peptide start residue: 48) (UniProt P54619)	-0.384
ATN1 (peptide sequence: TLSEYARPHVMSPGNR, peptide start residue: 885) (UniProt P54259)	-0.0977
RGS3 (peptide sequence: NGGSMHHLSLFFTGHR, peptide start residue: 989) (UniProt P49796)	0.47

A second format for some results above.
Target,log2 fold change
"RPS5 (peptide sequence: QAVDVSPLR, peptide start residue: 137) (UniProt P46782)",0.156
"DNA2 (peptide sequence: GGVSNVTEAK, peptide start residue: 909) (UniProt P51530)",0.622
"GTF2A1 (peptide sequence: SVIEDVINDVR, peptide start residue: 16) (UniProt P52655)",-0.281
"HNRNPM (peptide sequence: EVFSMAGVVVR, peptide start residue: 222) (UniProt P52272)",-0.311
"SRP9 (peptide sequence: VTDDLVCLVYKTDQAQDVKK, peptide start residue: 42) (UniProt P49458)",0.414
"PMS1 (peptide sequence: LDELLQSQIEKR, peptide start residue: 678) (UniProt P54277)",-0.201
"IRAK1 (peptide sequence: AIQFLHQDSPSLIHGDIK, peptide start residue: 325) (UniProt P51617)",-0.27
"AFF1 (peptide sequence: VSQPAAPPEGPR, peptide start residue: 522) (UniProt P51825)",0.266
